Measured values from PMC7382093.
Results are given in words; binding and its absence hold for the method and conditions named. Binding can be weak; no strength is given.

Sequences of proteins named here, by UniProt entry; tags and fusion partners are left off. A change or cut given only in a name is not applied to a line headed by its entry.
UniProt U6KIP1: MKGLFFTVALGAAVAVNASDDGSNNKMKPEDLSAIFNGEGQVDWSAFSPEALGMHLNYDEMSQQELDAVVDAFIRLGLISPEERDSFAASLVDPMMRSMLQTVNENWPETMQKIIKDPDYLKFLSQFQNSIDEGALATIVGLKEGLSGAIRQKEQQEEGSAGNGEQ

Biological target: GST-EtAMA1 (recombinant Eimeria tenella apical membrane antigen 1) (Eimeria tenella) (UniProt F8V414)
Assay: pull-down; Pierce GST Protein Interaction Pull-Down Kit; GST-EtAMA1 immobilised on glutathione-agarose as bait, His-EtEsp added as prey; eluate on 12% SDS-PAGE, western blot with anti-rEtAMA1 and anti-rEtEsp; both purified

His-EtEsp (recombinant E. tenella Eimeria-specific protein) (from UniProt U6KIP1)
binding: binds
